Measured values as given in patent US20240269212A1, “HEMP EXTRACT FOR TREATMENT OF PAIN, CANCER AND EPILEPSY IN ANIMALS” (Portland Technology Holdings LLC., priority 2021, published 2024).
The name of at least one read-out is uncertain.

Test: 24-hour pharmacokinetic analysis of serum CBG and CBGA after a single oral dose of hemp extract
Format: in vivo, dog (beagle)
Conditions: both the fed and fasted state

Compound: CCCCCc1cc(O)c(C/C=C(\C)CCC=C(C)C)c(O)c1C(=O)O [CBGA, cannabigerolic acid]
- times higher Cmax when compared to CBG: approximately 40 times
